Test results as given in US9878041B2, “Cyanoacrylate tissue adhesives” (Adhezion Biomedical, LLC, priority 2007, dated 2018).

Test system: hind limb muscles of adult Sprague-Dawley rats
Assay: In vivo biocompatibility and degradation, macroscopic and IHC, incision closure
Conditions: for Degree of degradation: one value per rat
Source text: Small surgical incisions (0.2 cm in depth, 1 cm in length) were made in both hind limb muscles of adult Sprague-Dawley rats (n=4). One incision was closed by 1 drop of various cyanoacrylate formulations dispensed through a surgical syringe needle (25 G) and the other was closed by absorbable suture (VICRYL, Ethicon) with and without injection of equivalent volumes of PEG included in cyanoacrylate formulations as controls. In order to ensure proper identification of the injury sites, a single non-absorb-able suture was placed adjacent to each repaired incision site.
At 7 days, 4 weeks, and 12 weeks post-surgery, tissue explants containing the repaired incision sites and surrounding muscle tissue were retrieved. The explants were photographed to document the macroscopic tissue response to the various cyanoacrylate formulations and suture controls (FIGS. 3A-3H (7 days), 4A-4H (4 weeks), and 5A-5H (12 weeks)). Identification of specific cells types associated with wound healing and inflammation was performed by histological sectioning and immunohistochemical (IHC) staining. Tissue explants were embedded in Optimal cutting temperature (OCT) compound and sectioned perpendicular to the surface of the repaired muscle tissue. Sections ([…] thick) were transferred to glass microscope slides, fixed with methanol, permeabilized with 0.025% Triton in PBS solution, and stained with primary antibodies directed against vimentin (fibroblasts) and rat macrophages, and Alexa-594 conjugated secondary antibodies. DAPI mounting media was used to counterstain all cellular nuclei. Samples were imaged by fluorescence microscopy (FIGS. 6A-6P, 7A-7P, 8A-8P). Specific cell types are identified in red, sutures and various cyanoacrylate adhesives are shown in green, and cellular nuclei are shown in blue. […]

Molecule | in vivo degradation (macroscopic) (4 and 12 weeks) | Degree of degradation (4 weeks post-surgery) | Degree of degradation (7 days post-surgery)
C=C(C#N)C(=O)OCCCCCCCC [OCA, octylcyanoacrylate] | minimal degradation | no | no
methoxyisopropylcyanoacrylate [MCA] |  |  | no
